Data as given in paper PMC6685058 (2019).
These are yes or no findings as the source states them, for the method shown. Some binding calls cover weakened binding; strength is not graded here. Where a sequence is shown, tags or fusion partners need not be part of it.

T1: BD-IMA-3(aa 278–514) (C. elegans) (UniProt Q19969)
T1 sequence: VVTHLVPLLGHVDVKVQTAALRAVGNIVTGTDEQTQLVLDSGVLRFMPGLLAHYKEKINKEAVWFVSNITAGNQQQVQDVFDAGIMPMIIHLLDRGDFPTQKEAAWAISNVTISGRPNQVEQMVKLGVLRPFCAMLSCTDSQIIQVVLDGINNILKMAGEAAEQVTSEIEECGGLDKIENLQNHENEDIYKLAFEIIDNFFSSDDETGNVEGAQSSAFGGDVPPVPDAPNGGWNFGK


Molecular target: T1, BD-IMA-3(aa 278–514) (C. elegans)
Experiment: two-hybrid; different yeast two-hybrid system (Clontech); pACT2 and pBTM116 fusions co-transformed into yeast strain L40; dilution series spotted on SD medium lacking leucine, tryptophan and histidine with 10 mM 3-AT; β-galactosidase assays

| binding | Binder |
| --- | --- |
| binds | AD-CEBP-1(aa 1–319) FL (protein, UniProt Q18909 1-319) MYSKLNYSHQKGDQALKHPHLVRLQQSEVRGFTDMPNNGASTSSAGSFARQDSLTIAASLQQRDRERHPVDFMETELDLGDYLQVLHDLDVPTDNVDFDDAELQKCNILYDGEHPYEQPELNGYERHVAYGTGYRVPGDYDQDGYKMNCEVKAETPDFGATKTRRAVKRPVPYDDYQKEYSEESSDMTDNDGSVDDSYFEPKSKKTKSAGLENFKPQTRARKYKLKADEEKAEPTYKLKRARNNDAVRKSRKKAKELQDKKEAEHDKMKRRIAELEGLLQSERDARRRDQDTLEQLLRNKGPMKEQRMPQRHILENFNK |
| binds | AD-CEBP-1(aa 1–319, K239A, R240A) (protein, UniProt Q18909 1-319) MYSKLNYSHQKGDQALKHPHLVRLQQSEVRGFTDMPNNGASTSSAGSFARQDSLTIAASLQQRDRERHPVDFMETELDLGDYLQVLHDLDVPTDNVDFDDAELQKCNILYDGEHPYEQPELNGYERHVAYGTGYRVPGDYDQDGYKMNCEVKAETPDFGATKTRRAVKRPVPYDDYQKEYSEESSDMTDNDGSVDDSYFEPKSKKTKSAGLENFKPQTRARKYKLKADEEKAEPTYKLAAARNNDAVRKSRKKAKELQDKKEAEHDKMKRRIAELEGLLQSERDARRRDQDTLEQLLRNKGPMKEQRMPQRHILENFNK |
| no binding | AD-CEBP-1(aa 1–319, K162A, R164A, K168A, R169A) (protein, UniProt Q18909 1-319) MYSKLNYSHQKGDQALKHPHLVRLQQSEVRGFTDMPNNGASTSSAGSFARQDSLTIAASLQQRDRERHPVDFMETELDLGDYLQVLHDLDVPTDNVDFDDAELQKCNILYDGEHPYEQPELNGYERHVAYGTGYRVPGDYDQDGYKMNCEVKAETPDFGATATARAVAAPVPYDDYQKEYSEESSDMTDNDGSVDDSYFEPKSKKTKSAGLENFKPQTRARKYKLKADEEKAEPTYKLKRARNNDAVRKSRKKAKELQDKKEAEHDKMKRRIAELEGLLQSERDARRRDQDTLEQLLRNKGPMKEQRMPQRHILENFNK |
| binds | AD-CEBP-1(aa 1–319, K204A, K205A, K207A) (protein, UniProt Q18909 1-319) MYSKLNYSHQKGDQALKHPHLVRLQQSEVRGFTDMPNNGASTSSAGSFARQDSLTIAASLQQRDRERHPVDFMETELDLGDYLQVLHDLDVPTDNVDFDDAELQKCNILYDGEHPYEQPELNGYERHVAYGTGYRVPGDYDQDGYKMNCEVKAETPDFGATKTRRAVKRPVPYDDYQKEYSEESSDMTDNDGSVDDSYFEPKSAATASAGLENFKPQTRARKYKLKADEEKAEPTYKLKRARNNDAVRKSRKKAKELQDKKEAEHDKMKRRIAELEGLLQSERDARRRDQDTLEQLLRNKGPMKEQRMPQRHILENFNK |
